Measurements as given in PMC12370185.
This is one part of the list.

tested on: KLF4 + histone octamer; assay: EMSA with sequencing; conditions: 10 mM Tris-Cl pH 7.5, 50 mM NaCl, 1 mM DTT, 0.25 mg/ml BSA, 2 mM MgCl2, 0.025% Nonidet P-40, 5% glycerol; 28 nM nucleosome library; 10 min on ice then 30 min …; high values mean tight binding; double strand, one strand shown

| Sequence | binding signal (log2 relative supershift) |
| --- | --- |
| GATGGACCCTATACGCGGCAAAATCTGGGTGTGGAAGAACTGTTGAACAATAGGTTAGCTCTATGTTCTACAACAGACTGTCTCTCAAATGCAGAGTTCTGTGTGTTTATTGACTACTAGCGTCAGCTTCTGTGCAGCTGAGATACAAATTCAGCCCTAGGCTTTTATCCACAGATCTGAGAGGAGGAAGGCAGGCAGGCACCTGTAATTTGCCAGTCGGATAGTGTTCC | 2.61 |
| GATGGACCCTATACGCGGCGAAGACAGGGAAGAGAGGAGGGAGAGAAGGGTGACAGGGAGCTGGTTGAGGGAGGGGACACAGAGCAGGAGACAGAGGCCCCATGTGGATCAAAGGAGTGACAAGGGAGGGCCCATGCTCAGTGATATGAGAACAGCAAGAGGCAACAAACAAGATACAAAAGGATACACACTTCCATCCCATTCATGTACTGCCAGTCGGATAGTGTTCC | 2.09 |
| GATGGACCCTATACGCGGCTTGCAGTCATTCTGTCATGTCACCCACTGAGGAGACTGCACACAAACTGCTTGAGGACAGGAGCTGTGTTATGCACACCTTTTGTCACTCATGACAGCCTGTTAACACACTGCCAGACACATAGCCAGTGCTCAATTACACGGCTGAGTAGGACAGACCACACAGTTATTACCCCCTTTGAGCACACCATTTGCCAGTCGGATAGTGTTCC | 0.238 |
| GATGGACCCTATACGCGGCCTCCAACAGAAATCTCCACTCACAGGTGTCACAGCCCAAAGCTGTCTTTGTAATGGTGACCTCACCCTGGTATCACAGTGACTGTAAGGGAAAGAAAGCAGCTGCCACTTCCTGGTTCACTTTCAACACCAAGCTCTCCTGATTTTATGTGTTCATTCTTATTACTTTCTTTCCCTCTCACCCTACCATATTGCCAGTCGGATAGTGTTCC | 0.958 |
| GATGGACCCTATACGCGGCTTTGGATATTTTAAAACAAATCCAGGAAGAGAGCAATGTACAACACAAAGGGATGAATCACAAATGGCAGAATTTCAGACATGAGTCAGAGATATTTTGGGTGTAGACCTGCCCTGTGTCCTATAACCCTACCACCTACTCACCTCACATTTCTCATATGAACTGATTGTTCTCTTGTTCCCTTTTTTTGTTGCCAGTCGGATAGTGTTCC | 0.332 |
| GATGGACCCTATACGCGGCTCAGAACCAGATGCACAAAGAACAAACAAGTTTCCCAGCAGGACTCAAAATAGAAGGGATGGTGACTGCATGCCTTACCATTCGGGATCCTCTTCTTCCCGGAGAACTCCGCGCAGGCAGGTCTGTACCTGCTTAGAGGCAGCCTGTCTGTTGAGCAGCCCATCCTCAGTGAGGGACGATAAGAGACTGGGTGCCAGTCGGATAGTGTTCC | 1.07 |
| GATGGACCCTATACGCGGCCATGTTGAATGGGTGAACTGTATGGTATGTCATTATATTTCAAGAAGCCATTAAAAAAAAACAACAGAAAGCCTTGCTGCAACATGCCTGCACTTGCTCCTGCCACATTCAGGTGGTTCTGAGCTGAAGCCACAGACAGGTCTCCCTGGGTTAGAGGTGTTCCCTGCTGGTCAGATCATTTATGATTGGAATGCCAGTCGGATAGTGTTCC | 0.61 |
| GATGGACCCTATACGCGGCATGAACATTCATTCGGGTGGCTGTCTTTGGGTGAACACATGGATGCATTTCTGGTGGGGGTGGAGTTGCCCGGTCATAAGGTATGTGCATGTTCACCTTGAGTAGATACTGCATAGCAGCGCAGTCCACCCAAAGCGGGTAGACAAATTTGCAATGCCATTGGCAGTGTGATGGGAGACACAGAAAGAGAGTGCCAGTCGGATAGTGTTCC | 1.66 |
| GATGGACCCTATACGCGGCAACGTGAGGCAGGATGTTCATTTTCCTCTAGTAGCAGGTTCTGAGATAGTCTGTGTGTGATGTGCATGTGAATGAGTGGATGTGAGTGAGAATAGCAGGAGTGAGGGTAGGTTGCAGTTTTGATTACACGGGTGTAGACTGATTCTCTGAGGTCAGCTTTATGCACTGGGTTTTAACTTTGTGGAACCATATGCCAGTCGGATAGTGTTCC | 0.893 |
| GATGGACCCTATACGCGGCTGCCTTTTTGAGAAGTAGACATATGTACTGGAGGCAACCTAGCTTGGTGTGATGAGCAACAGATTGGAACACAGAGCAGCACTAGGTGTACAGTGTCAGGAAGTCCAACTCAGTGGGTGTTTGTTATGCACAAGGAACTTTGACAGGCATTATTGTGGGAGAGGGTGGTTGAGGTGGATATAAGCATGAATTGCCAGTCGGATAGTGTTCC | 1.99 |
| GATGGACCCTATACGCGGCTTCTGTCCTTGTTCCTCGTCCCATCTGGAGCATTTCCAATTCTGGTTTTGCGGAGCAGCAGGTCTGAGCTTGTCCGGCGAGGGTGGGAGTTGGTCCCGGCGGAGATCCAGTGGGAAGAGCCGGCGGCTGCCCGGGCGTGAGTAGACCGAGAATCCTGCCCGATCCCCGCCCCTGGGCTGGTGTCGCCCTGGTGCCAGTCGGATAGTGTTCC | 1.28 |
| GATGGACCCTATACGCGGCCAGGGTGAAAAGACTGGCCAGACATTTTCTGGAAAGAGGCAGGCTAAGCAGGAGCTTGGTAAACAAAAGCAGGAAATGGAGCGTTCAGAACATCCACAGACGTGTTCAGACATGCAGGCCCCTGCCGGGCTGCAGAGAGTATGACAATTCGGGCTTGTGTGGTGTGGAGGTACCCAATGGGATGGGACCCCTGCCAGTCGGATAGTGTTCC | 1.8 |
| GATGGACCCTATACGCGGCTCTAACAACAATTTATATGTGTATGTGCCAAGATAGGGGGGTGGGTTTCCTGAGGGCTGGAGACAGGACAGGTATGACCATGCACAGCCGCATTCTTTGGCAGAGAACACACATGATTCCCCCAAATATGTTTCTGGAAACGGAATTGAGTCTGTTCTGTGCTGAGATCTTTGACTTTCTTGAGGACAAAATGCCAGTCGGATAGTGTTCC | 0.492 |
| GATGGACCCTATACGCGGCCCCTCTTCTTCCAGTTCTTTGTTTCTCTAGTTTCTATAGTTACCCGTGCTGTAAACAACCCTTCCTGCCCTGACTGTTCCCTGACATGTCCTGACAAGTCTAGACAGGCCTTGCACCATAATGGATAGCCTTCCCCTTCCTGCCTAGATAGCTGTATTCAATTTCAAACATTAGCCAATCAGGTCAGTTTATGCCAGTCGGATAGTGTTCC | 0.165 |
| GATGGACCCTATACGCGGCGAGTGACTTAAGAATGTCAGAGAATAGCAAGGGAGTGGCAGAAACCCTGTGAAGCACAGGCTAAGTATGGCCATATACAGAAGGGTGGAGTCATTGTTGTGCTATTCCCTTCCCCAATGCCTAAGTCACAGCTGTGCCCCACCATTCATGGGCCCTTGTTGCTGCTGTACCCAGCCTCACAAAGTCTGGTCTGCCAGTCGGATAGTGTTCC | 2.09 |

Laid out differently: results already given
Sequence,binding signal (log2 relative supershift)
GATGGACCCTATACGCGGCGAAGACAGGGAAGAGAGGAGGGAGAGAAGGGTGACAGGGAGCTGGTTGAGGGAGGGGACACAGAGCAGGAGACAGAGGCCCCATGTGGATCAAAGGAGTGACAAGGGAGGGCCCATGCTCAGTGATATGAGAACAGCAAGAGGCAACAAACAAGATACAAAAGGATACACACTTCCATCCCATTCATGTACTGCCAGTCGGATAGTGTTCC,2.09
GATGGACCCTATACGCGGCAACGTGAGGCAGGATGTTCATTTTCCTCTAGTAGCAGGTTCTGAGATAGTCTGTGTGTGATGTGCATGTGAATGAGTGGATGTGAGTGAGAATAGCAGGAGTGAGGGTAGGTTGCAGTTTTGATTACACGGGTGTAGACTGATTCTCTGAGGTCAGCTTTATGCACTGGGTTTTAACTTTGTGGAACCATATGCCAGTCGGATAGTGTTCC,0.893
